Measured values published in PubChem BioAssay AID540276 (National Center for Advancing Translational Sciences (NCATS), 2011).
Hit rate of the full screen: of about 300,000 compounds, about 5,400 (1.8%) were called active. This list was built around the results that the source calls inconclusive (neither active nor inactive); the mix of calls is not that of the screen. The call rests on the fitted dose curve; tested in HEK293 cells. Potencies of inconclusive entries are doubtful fits and often do not repeat.

assay: qHTS for inhibitors of binding or entry into cells for Marburg Virus; conditions: Marburg virus pseudotyped entry inhibition, cell reporter; series mostly up to 37.8 µM
Potency means the concentration at half of the fitted maximal effect.

Compound | Potency
N#Cc1ccc(OCC(O)CN2CCN(C(c3ccccc3)c3ccccc3)CC2)cc1 (stereo unspecified) | inconclusive: 22.4 µM [inhibitor, single point]
COc1ccc(-n2nc(C(=O)NCCc3ccc(Cl)cc3)c3c4ccccc4n(C)c3c2=O)cc1 | inactive
O=c1cc(CN2CCN(c3ccc(F)cc3)CC2)c2cc3c(cc2o1)CCCC3 | inconclusive: 29.1 µM [inhibitor, single point]
Cc1ccc2nc(C(Cl)(Cl)Cl)nc(N/N=C/c3ccc([N+](=O)[O-])cc3)c2c1 | inactive
CCOC(=O)Cn1c(=NC(=O)c2cccs2)sc2cc(C(=O)OC)ccc21 | inconclusive: 35.5 µM [activator, partial curve, poor fit]
CCOc1ccc(N2Cc3ncccc3C2=O)cc1 | inconclusive: 0.0058 µM [activator, full curve, poor fit]
CCCCCCCSc1ncnc2[nH]ncc12 | inconclusive: 35.5 µM [inhibitor, single point]
CCCC(C(=O)NCc1ccco1)N(C(=O)CNS(=O)(=O)c1ccc(Cl)cc1)C1CCCC1 (stereo unspecified) | inactive
CC1CCCCN1C(=S)NC(=O)c1ccco1 (stereo unspecified) | inactive
CCOC(=O)c1ccccc1NC(=O)N(Cc1ccc(CC)cc1)Cc1cn[nH]c1-c1ccc(OC)cc1 | inconclusive: 11.2 µM [inhibitor, single point]
CCOC(=O)c1c(NC(=O)c2ccn(CC)n2)sc2c1CCC2 | inactive
Cc1cc(SCC#N)n2nc(C)c(-c3ccc(Cl)cc3)c2n1 | inconclusive: 29.1 µM [inhibitor, single point]
CNC(=O)/C(C#N)=C/c1ccc(-c2ccccc2[N+](=O)[O-])o1 | inconclusive: 25.1 µM [activator, single point]
O=C(NC1CCCC1)C(c1cccs1)N(C(=O)c1ccno1)c1ccccc1 (stereo unspecified) | inconclusive: 22.4 µM [inhibitor, partial curve, poor fit]
Cc1cc(Nc2ccccc2)nn1C(=O)c1ccccc1 | inactive
COc1cccc(CC2(CO)CCCN(Cc3ccc(C)s3)C2)c1 (stereo unspecified) | inconclusive: 3.55 µM [inhibitor, single point]
COc1ccccc1C(=O)Nc1cc(Cl)ccc1O | inactive
O=C(Oc1ccc(Cl)cc1)N1CCCCC1 | inconclusive: 20.6 µM [activator, partial curve]
COc1ccc(NC(C)=O)cc1NC(=O)c1cccc(C(F)(F)F)c1 | inactive
O=C(CSc1nc(C2CCCCC2)nc2ccccc12)N1CCCC1 | inconclusive: 10 µM [inhibitor, partial curve, poor fit]
CCn1c(SCC(=O)Nc2nc3ccc(OC)cc3s2)nc2c1c(=O)n(C)c(=O)n2C | inconclusive: 25.9 µM [inhibitor, single point]
Cc1nnc2ccc(-c3cccc(NS(C)(=O)=O)c3)nn12 | inconclusive: 10 µM [activator, partial curve, poor fit]
CCOC(=O)c1ccc(NC(=O)CCc2nc(-c3cccc(C)c3)no2)cc1 | inactive

Among those listed so far, two contain a nitro group on carbon.
Compound | Potency
Cc1ccc2nc(C(Cl)(Cl)Cl)nc(N/N=C/c3ccc([N+](=O)[O-])cc3)c2c1 | inactive
CNC(=O)/C(C#N)=C/c1ccc(-c2ccccc2[N+](=O)[O-])o1 | inconclusive: 25.1 µM [activator, single point]

Next part

Compound | Potency
O=C(Oc1cccnc1)c1ccccc1[N+](=O)[O-] | inactive
CC(C)C(=O)N1CCN(c2ccccc2NC(=O)c2ccc([N+](=O)[O-])o2)CC1 | inactive
COc1ccc(C(=O)NCc2nnc(SCC(=O)N3CCOCC3)o2)cc1OC | inactive
O=C(CNC(c1ccccc1)c1ccccc1)Nc1cc([N+](=O)[O-])ccc1Cl | inconclusive: 12.6 µM [inhibitor, single point]
CCC(C)(C)n1nnnc1CN(Cc1ccc(Cl)cc1)Cc1ccco1 | inconclusive: 3.55 µM [inhibitor, full curve]
CCOC(=O)N1CCN(C(=O)COC(=O)c2ccc([N+](=O)[O-])cc2Cl)CC1 | inactive
O=[N+]([O-])c1ccc(O)c(-c2nc(-c3ccccc3)c(-c3cccs3)[nH]2)c1 | inconclusive: 9.2 µM [inhibitor, partial curve, poor fit]
COC(=O)N/N=C(\C)c1ccc(-n2ccnc2)cc1 | inconclusive: 3.16 µM [inhibitor, single point]
Cc1cc(C)c(S(=O)(=O)NCc2ccncc2)c(C)c1 | inconclusive: 0.184 µM [inhibitor, full curve, poor fit]
Cc1ccc(CN2CCNC(=O)C2CC(=O)N(C)C2CCOCC2)cc1 (stereo unspecified) | inactive
S=C(NCCCN1CCOCC1)N1CCN(c2nc(-c3ccccc3)cs2)CC1 | inconclusive: 7.08 µM [inhibitor, partial curve, poor fit]
COc1ccc2c(CN3CCN(C(C)=O)CC3)cc(=O)oc2c1 | inconclusive: 17.7 µM [activator, partial curve]
C[C@]12C[C@@](C)(C=C1C=Cc1ccc(F)cc1)C(=O)C[C@H]2c1ccc(F)cc1 | inactive
Cc1ccc(C)c(C(=O)OCC(=O)Nc2ccc(N3CCOCC3)cc2)c1 | inconclusive: 14.1 µM [inhibitor, single point]
CCCCN=CC1=C(O)CC(c2ccccc2)CC1=O (stereo unspecified) | inconclusive: 11.2 µM [inhibitor, single point]
Cc1ccc(Nc2n[nH]c(C)c2[N+](=O)[O-])c(C)c1 | inactive
Nc1nncn1C(=O)CCc1ccccc1 | inactive
COc1ccccc1NS(=O)(=O)c1cccc(C(=O)N/N=C/c2c(C)nn(-c3ccccc3)c2N2CCCC2)c1 | inconclusive: 13 µM [inhibitor, single point]
Cc1ccc2c(c1)C1CN(C)CCC1N2C(=O)CCCN1C(=O)c2cccc3cccc(c23)C1=O (stereo unspecified) | active: 7.94 µM
c1ccc(CCNc2ncnc3nc[nH]c23)cc1 | inconclusive: 35.5 µM [inhibitor, partial curve, poor fit]
CCc1ccccc1NC(=O)C1(S(=O)(=O)c2ccc(Cl)cc2)CC1 | inactive
O=S(=O)(c1ccccc1)c1nc(-c2ccco2)oc1N1CCCCCC1 | inconclusive: 5.62 µM [activator, single point]
O=C(COC(=O)C1CCCC1)NCc1ccc(Cl)cc1 | inconclusive: 6.31 µM [activator, single point]
